Results: article PMC5058738
Results are given in words; binding and its absence hold for the method and conditions named. In cells and extracts the contact can be indirect. Some results given as binding are weak or reduced against the parent protein; the word gives no strength.

Protein sequences, listed by entry. Tags and fused reporters are not part of them.
UniProt Q02078: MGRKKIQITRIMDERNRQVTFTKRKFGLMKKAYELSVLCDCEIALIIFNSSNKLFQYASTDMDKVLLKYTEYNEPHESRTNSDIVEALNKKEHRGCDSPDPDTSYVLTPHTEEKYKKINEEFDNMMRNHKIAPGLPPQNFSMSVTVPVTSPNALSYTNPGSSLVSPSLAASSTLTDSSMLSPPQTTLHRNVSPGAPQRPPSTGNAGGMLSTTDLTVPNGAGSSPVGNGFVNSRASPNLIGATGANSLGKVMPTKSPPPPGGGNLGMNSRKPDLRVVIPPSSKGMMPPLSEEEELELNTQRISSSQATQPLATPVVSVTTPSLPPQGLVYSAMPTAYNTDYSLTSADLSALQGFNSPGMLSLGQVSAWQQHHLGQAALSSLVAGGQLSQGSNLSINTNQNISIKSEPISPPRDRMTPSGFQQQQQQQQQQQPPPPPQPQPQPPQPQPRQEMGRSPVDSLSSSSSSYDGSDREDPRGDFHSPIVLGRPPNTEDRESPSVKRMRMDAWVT
UniProt Q15796: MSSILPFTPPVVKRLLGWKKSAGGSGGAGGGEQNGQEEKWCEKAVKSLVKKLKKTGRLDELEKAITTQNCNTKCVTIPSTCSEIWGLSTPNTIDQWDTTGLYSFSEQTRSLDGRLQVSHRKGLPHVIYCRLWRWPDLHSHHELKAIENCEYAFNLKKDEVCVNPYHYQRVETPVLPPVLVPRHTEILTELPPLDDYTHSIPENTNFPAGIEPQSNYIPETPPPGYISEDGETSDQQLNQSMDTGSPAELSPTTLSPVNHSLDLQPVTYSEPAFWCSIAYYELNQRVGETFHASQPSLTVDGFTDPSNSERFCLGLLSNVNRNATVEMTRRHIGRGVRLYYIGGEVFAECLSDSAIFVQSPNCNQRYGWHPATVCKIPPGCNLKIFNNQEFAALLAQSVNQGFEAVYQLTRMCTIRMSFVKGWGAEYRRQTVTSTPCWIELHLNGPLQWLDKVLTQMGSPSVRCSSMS

Tests used:
[1] = biological target: Myocyte enhancer factor 2A (human (endogenous in HUVECs)) (UniProt Q02078); test: co-IP; HUVEC lysate (Lysis Buffer P0013 with PMSF) incubated with MEF2A, Smad2 and IgG antibody at 4°C overnight, Protein A/G sepharose beads 6 h, washed three times; SDS-PAGE and Western blot
[2] = biological target: Myocyte enhancer factor 2A (human (endogenous in HUVECs)) (UniProt Q02078); test: proximity ligation; Duolink in situ PLA on HUVECs fixed in 4% formaldehyde; anti-MEF2A (mouse) and anti-Smad2 (rabbit); control and high glucose (HG) groups; confocal microscopy

Smad2 (from UniProt Q15796 1-467)
binding [1]: binds
binding [2]: binds
